Measured values: paper PMC11873677

Tests used:
[1] = target: REM35 (REproductive Meristem 35), bait of the Y2H matrix screening (Arabidopsis thaliana); assay: two-hybrid; Y2H matrix screening; REM34 and REM35 in bait vector pDEST32 against a set of inflorescence transcription factors in prey vector pDEST22; performed as in Herrera-Ubaldo et al. (2023)
[2] = target: REM34 (REproductive Meristem 34), bait of the Y2H matrix screening (Arabidopsis thaliana); assay: as above
[3] = target: REM35 expressed from the pTFT vector (third protein of the yeast three-hybrid) (Arabidopsis thaliana); assay: yeast three-hybrid; REM35 in pTFT in Y187, mated with AH109 carrying pGADT7 and pGBKT7 vectors; medium lacking Leu, Trp, Ade and His with increasing 3-aminotriazole; 5 days at 28°C
[4] = target: REM34, GAL4 yeast two-hybrid fusion (pGBKT7) (Arabidopsis thaliana); assay: as above
[5] = target: REM35, split-YFP fusion for BiFC (Arabidopsis thaliana); assay: split reporter; BiFC; pYFPN43 and pYFPC43 vectors; Agrobacterium with p19 infiltrated into tobacco leaves; abaxial surfaces imaged three days after inoculation

B1: ARF19 (Auxin Response Factor 19), prey of the Y2H matrix screening (protein, UniProt Q8RYC8 1-1086)
chain: MKAPSNGFLPSSNEGEKKPINSQLWHACAGPLVSLPPVGSLVVYFPQGHSEQVAASMQKQTDFIPNYPNLPSKLICLLHSVTLHADTETDEVYAQMTLQPVNKYDREALLASDMGLKLNRQPTEFFCKTLTASDTSTHGGFSVPRRAAEKIFPPLDFSMQPPAQEIVAKDLHDTTWTFRHIYRGQPKRHLLTTGWSVFVSTKRLFAGDSVLFVRDEKSQLMLGIRRANRQTPTLSSSVISSDSMHIGILAAAAHANANSSPFTIFFNPRASPSEFVVPLAKYNKALYAQVSLGMRFRMMFETEDCGVRRYMGTVTGISDLDPVRWKGSQWRNLQVGWDESTAGDRPSRVSIWEIEPVITPFYICPPPFFRPKYPRQPGMPDDELDMENAFKRAMPWMGEDFGMKDAQSSMFPGLSLVQWMSMQQNNPLSGSATPQLPSALSSFNLPNNFASNDPSKLLNFQSPNLSSANSQFNKPNTVNHISQQMQAQPAMVKSQQQQQQQQQQHQHQQQQLQQQQQLQMSQQQVQQQGIYNNGTIAVANQVSCQSPNQPTGFSQSQLQQQSMLPTGAKMTHQNINSMGNKGLSQMTSFAQEMQFQQQLEMHNSSQLLRNQQEQSSLHSLQQNLSQNPQQLQMQQQSSKPSPSQQLQLQLLQKLQQQQQQQSIPPVSSSLQPQLSALQQTQSHQLQQLLSSQNQQPLAHGNNSFPASTFMQPPQIQVSPQQQGQMSNKNLVAAGRSHSGHTDGEAPSCSTSPSANNTGHDNVSPTNFLSRNQQQGQAASVSASDSVFERASNPVQELYTKTESRISQGMMNMKSAGEHFRFKSAVTDQIDVSTAGTTYCPDVVGPVQQQQTFPLPSFGFDGDCQSHHPRNNLAFPGNLEAVTSDPLYSQKDFQNLVPNYGNTPRDIETELSSAAISSQSFGIPSIPFKPGCSNEVGGINDSGIMNGGGLWPNQTQRMRTYTKVQKRGSVGRSIDVTRYSGYDELRHDLARMFGIEGQLEDPLTSDWKLVYTDHENDILLVGDDPWEEFVNCVQNIKILSSVEVQQMSLDGDLAAIPTTNQACSETDSGNAWKVHYEDTSAAASFNR
binding [1]: binds | binding [2]: no binding

B2: ARF19, full-length, GAL4 yeast two-hybrid fusion (protein, UniProt Q8RYC8 1-1086)
chain: B1 chain
binding [3]: binds | binding [4]: no binding

B3: ARF19, split-YFP fusion for BiFC (protein, UniProt Q8RYC8 1-1086)
chain: B1 chain
binding [5]: binds

These are yes or no findings as the source states them, for the method shown. For some assays here: A result given as binding can be weak or reduced; the word gives no strength. For some assays here: Tags and fused reporters may be left off the sequences shown. For some assays here: Binding seen in cells or lysates may run through a third protein.
